Test results published in the supplement of paper PMC10077471.
In all, about 1,900 compounds were measured (“excess over highest single agent (ExcessHSA) synergy score, 6x6 matrix”: median about -83, lowest 2% from about -370 on). Some of the results follow.

Tested on: NCI-H446
Assay: excess over highest single agent (ExcessHSA) synergy score, 6x6 matrix; higher = less synergy (more negative = stronger synergy)
Settings: 72 h; CellTiter-Glo viability

SMILES	excess over highest single agent
CSCC[C@H](NC(=O)[C@H](Cc1ccccc1)NC(=O)CNC(=O)CNC(=O)[C@@H](N)Cc1ccc(O)cc1)C(=O)O + Cc1sc2c(c1C)C(c1ccc(Cl)cc1)=N[C@@H](CC(=O)OC(C)(C)C)c1nnc(C)n1-2 [NCGC00250412-19]	-122
N#Cc1ccc(NC(=O)Nc2ccccc2Br)c2n[nH]nc12 + Cc1sc2c(c1C)C(c1ccc(Cl)cc1)=N[C@@H](CC(=O)OC(C)(C)C)c1nnc(C)n1-2 [NCGC00250412-19]	-69.3
COc1cc(CCc2cc(NC(=O)c3ccc(N4CC(C)NC(C)C4)cc3)n[nH]2)cc(OC)c1 (centres undefined) + Cc1sc2c(c1C)C(c1ccc(Cl)cc1)=N[C@@H](CC(=O)OC(C)(C)C)c1nnc(C)n1-2 [NCGC00250412-19]	-88.8
O=C1Nc2ccc(Cl)cc2[C@@](C#CC2CC2)(C(F)(F)F)O1 + Cc1sc2c(c1C)C(c1ccc(Cl)cc1)=N[C@@H](CC(=O)OC(C)(C)C)c1nnc(C)n1-2 [NCGC00250412-19]	-86.5
c1ccc(-c2nn3c(c2-c2ccnc4cc(OCCN5CCOCC5)ccc24)CCC3)nc1 + Cc1sc2c(c1C)C(c1ccc(Cl)cc1)=N[C@@H](CC(=O)OC(C)(C)C)c1nnc(C)n1-2 [NCGC00250412-19]	179
O=C(O)Cn1nnc(-c2cc(N3CCC(Oc4cc(F)ccc4Br)CC3)no2)n1 + Cc1sc2c(c1C)C(c1ccc(Cl)cc1)=N[C@@H](CC(=O)OC(C)(C)C)c1nnc(C)n1-2 [NCGC00250412-19]	-191
O=C(Nc1cccc(Br)c1)c1cccc(S(=O)(=O)N2CCCCCC2)c1 + Cc1sc2c(c1C)C(c1ccc(Cl)cc1)=N[C@@H](CC(=O)OC(C)(C)C)c1nnc(C)n1-2 [NCGC00250412-19]	20.4
Cc1cccc(C)c1OCC(=O)N[C@@H](Cc1ccccc1)[C@@H](O)C[C@H](Cc1ccccc1)NC(=O)[C@H](C(C)C)N1CCCNC1=O + Cc1sc2c(c1C)C(c1ccc(Cl)cc1)=N[C@@H](CC(=O)OC(C)(C)C)c1nnc(C)n1-2 [NCGC00250412-19]	-162
c1ccc(CNc2nc(N3CCOc4ccccc43)nc3c2CCCC3)cc1 + Cc1sc2c(c1C)C(c1ccc(Cl)cc1)=N[C@@H](CC(=O)OC(C)(C)C)c1nnc(C)n1-2 [NCGC00250412-19]	-84
Clc1ccc(C(c2ccccc2Cl)C(Cl)Cl)cc1 (centres undefined) + Cc1sc2c(c1C)C(c1ccc(Cl)cc1)=N[C@@H](CC(=O)OC(C)(C)C)c1nnc(C)n1-2 [NCGC00250412-19]	-43.8
N#CC[C@H](C1CCCC1)n1cc(-c2ncnc3[nH]ccc23)cn1 + Cc1sc2c(c1C)C(c1ccc(Cl)cc1)=N[C@@H](CC(=O)OC(C)(C)C)c1nnc(C)n1-2 [NCGC00250412-19]	234
CN(C[C@@H]1COCCO1)S(=O)(=O)Nc1ccc2ccc3ncc(-c4cnn(C)c4)cc3c(=O)c2c1 + Cc1sc2c(c1C)C(c1ccc(Cl)cc1)=N[C@@H](CC(=O)OC(C)(C)C)c1nnc(C)n1-2 [NCGC00250412-19]	-193
CCCc1nn(C)c2c(=O)[nH]c(-c3cc(S(=O)(=O)N4CCN(C)CC4)ccc3OCC)nc12 + Cc1sc2c(c1C)C(c1ccc(Cl)cc1)=N[C@@H](CC(=O)OC(C)(C)C)c1nnc(C)n1-2 [NCGC00250412-19]	-189
CCC(C)(C)C(=O)O[C@H]1C[C@@H](C)C=C2C=C[C@H](C)[C@H](CC[C@@H]3C[C@@H](O)CC(=O)O3)[C@H]21 + Cc1sc2c(c1C)C(c1ccc(Cl)cc1)=N[C@@H](CC(=O)OC(C)(C)C)c1nnc(C)n1-2 [NCGC00250412-19]	-62.2
CCCCS(=N)(=O)CCC(N)C(=O)O (centres undefined) + Cc1sc2c(c1C)C(c1ccc(Cl)cc1)=N[C@@H](CC(=O)OC(C)(C)C)c1nnc(C)n1-2 [NCGC00250412-19]	-53.3
N=c1nc(N2CCCCC2)cc(N)n1O + Cc1sc2c(c1C)C(c1ccc(Cl)cc1)=N[C@@H](CC(=O)OC(C)(C)C)c1nnc(C)n1-2 [NCGC00250412-19]	-91.3
CC(C)c1cnn2c(NCc3ccccc3)cc(NCCCCCCN)nc12 + Cc1sc2c(c1C)C(c1ccc(Cl)cc1)=N[C@@H](CC(=O)OC(C)(C)C)c1nnc(C)n1-2 [NCGC00250412-19]	-58.1
CCOC(=O)N1CCN(/[N+]([O-])=N/Oc2ccc([N+](=O)[O-])cc2C#N)CC1 + Cc1sc2c(c1C)C(c1ccc(Cl)cc1)=N[C@@H](CC(=O)OC(C)(C)C)c1nnc(C)n1-2 [NCGC00250412-19]	-234
O=C(c1ccc(F)c(F)c1Nc1ccc(I)cc1F)N1CC(O)([C@@H]2CCCCN2)C1 + Cc1sc2c(c1C)C(c1ccc(Cl)cc1)=N[C@@H](CC(=O)OC(C)(C)C)c1nnc(C)n1-2 [NCGC00250412-19]	-50.5
COc1cc2nc(N3CCCN(C)CC3)nc(NC3CCN(Cc4ccccc4)CC3)c2cc1OC + Cc1sc2c(c1C)C(c1ccc(Cl)cc1)=N[C@@H](CC(=O)OC(C)(C)C)c1nnc(C)n1-2 [NCGC00250412-19]	-95.7

Single values from the entries so far.
excess over highest single agent, CN(C[C@@H]1COCCO1)S(=O)(=O)Nc1ccc2ccc3ncc(-c4cnn(C)c4)cc3c(=O)c2c1 + Cc1sc2c(c1C)C(c1ccc(Cl)cc1)=N[C@@H](CC(=O)OC(C)(C)C)c1nnc(C)n1-2 [NCGC00250412-19] reads -193
excess over highest single agent, CCOC(=O)N1CCN(/[N+]([O-])=N/Oc2ccc([N+](=O)[O-])cc2C#N)CC1 + Cc1sc2c(c1C)C(c1ccc(Cl)cc1)=N[C@@H](CC(=O)OC(C)(C)C)c1nnc(C)n1-2 [NCGC00250412-19] reads -234

Continued:

SMILES	excess over highest single agent
O=S(=O)(c1cccc2cnccc12)N1CCCNCC1 + Cc1sc2c(c1C)C(c1ccc(Cl)cc1)=N[C@@H](CC(=O)OC(C)(C)C)c1nnc(C)n1-2 [NCGC00250412-19]	71.4
C[C@]12CC[C@H]3[C@@H](CCC4=CC(=O)CC[C@@]43C)[C@@H]1CC[C@@H]2O + Cc1sc2c(c1C)C(c1ccc(Cl)cc1)=N[C@@H](CC(=O)OC(C)(C)C)c1nnc(C)n1-2 [NCGC00250412-19]	-246
CCC1(C)CC(=O)NC1=O (centres undefined) + Cc1sc2c(c1C)C(c1ccc(Cl)cc1)=N[C@@H](CC(=O)OC(C)(C)C)c1nnc(C)n1-2 [NCGC00250412-19]	-2.21
CC(C)(O)CC(=O)NCCn1ccc2ncnc(Nc3ccc(Oc4cccc(C(F)(F)F)c4)c(Cl)c3)c21 + Cc1sc2c(c1C)C(c1ccc(Cl)cc1)=N[C@@H](CC(=O)OC(C)(C)C)c1nnc(C)n1-2 [NCGC00250412-19]	16.5
CC(NCCc1ccc(O)cc1)C(O)c1ccc(O)cc1 (centres undefined) + Cc1sc2c(c1C)C(c1ccc(Cl)cc1)=N[C@@H](CC(=O)OC(C)(C)C)c1nnc(C)n1-2 [NCGC00250412-19]	-41.8
c1cc(OCCN2CCCCC2)cc(-c2n[nH]c3ccc(-c4nnc[nH]4)cc23)c1 + Cc1sc2c(c1C)C(c1ccc(Cl)cc1)=N[C@@H](CC(=O)OC(C)(C)C)c1nnc(C)n1-2 [NCGC00250412-19]	-149
O=C(NC(Cc1cc(=O)[nH]c2ccccc12)C(=O)O)c1ccc(Cl)cc1 (centres undefined) + Cc1sc2c(c1C)C(c1ccc(Cl)cc1)=N[C@@H](CC(=O)OC(C)(C)C)c1nnc(C)n1-2 [NCGC00250412-19]	-189
CN(C)c1ccc(Nc2nc(N)n(C(=O)c3c(F)cccc3F)n2)cc1 + Cc1sc2c(c1C)C(c1ccc(Cl)cc1)=N[C@@H](CC(=O)OC(C)(C)C)c1nnc(C)n1-2 [NCGC00250412-19]	-235
COC(=O)/C=C/C(=O)OC + Cc1sc2c(c1C)C(c1ccc(Cl)cc1)=N[C@@H](CC(=O)OC(C)(C)C)c1nnc(C)n1-2 [NCGC00250412-19]	-117
COc1ccc(-c2oc3cc(OC)ccc3c2C(=O)c2ccc(C#N)cc2)cc1 + Cc1sc2c(c1C)C(c1ccc(Cl)cc1)=N[C@@H](CC(=O)OC(C)(C)C)c1nnc(C)n1-2 [NCGC00250412-19]	-37.5
CNc1nc(Nc2ccc(C(=O)N3CCOCC3)cc2OC)ncc1Cl + Cc1sc2c(c1C)C(c1ccc(Cl)cc1)=N[C@@H](CC(=O)OC(C)(C)C)c1nnc(C)n1-2 [NCGC00250412-19]	436
CC(C)c1cc(C(C)C)c(CC(=O)NS(=O)(=O)Oc2c(C(C)C)cccc2C(C)C)c(C(C)C)c1 + Cc1sc2c(c1C)C(c1ccc(Cl)cc1)=N[C@@H](CC(=O)OC(C)(C)C)c1nnc(C)n1-2 [NCGC00250412-19]	-149
CC(=O)O[C@H]1C[C@@H]2CC[C@@H]3[C@H](CC[C@@]4(C)[C@H]3C[C@H]([N+]3(C)CCCCC3)[C@@H]4OC(C)=O)[C@@]2(C)C[C@@H]1[N+]1(C)CCCCC1 + Cc1sc2c(c1C)C(c1ccc(Cl)cc1)=N[C@@H](CC(=O)OC(C)(C)C)c1nnc(C)n1-2 [NCGC00250412-19]	50.1
O=C1c2c(O)ccc(O)c2C(=O)c2c(NCCNCCO)ccc(NCCNCCO)c21 + Cc1sc2c(c1C)C(c1ccc(Cl)cc1)=N[C@@H](CC(=O)OC(C)(C)C)c1nnc(C)n1-2 [NCGC00250412-19]	-211
N[C@@H](Cc1ccc(O)c(O)c1)C(=O)O + Cc1sc2c(c1C)C(c1ccc(Cl)cc1)=N[C@@H](CC(=O)OC(C)(C)C)c1nnc(C)n1-2 [NCGC00250412-19]	57.6
CCCCCCCCOc1ccccc1C(=O)Nc1ccc(C(=O)OCC[N+](C)(CC)CC)cc1 + Cc1sc2c(c1C)C(c1ccc(Cl)cc1)=N[C@@H](CC(=O)OC(C)(C)C)c1nnc(C)n1-2 [NCGC00250412-19]	-51.4
CN1CCCN(C(=O)c2cccc(-c3ccc(/C=C4/C(=O)Nc5ccc(Cl)cc54)o3)c2)CC1 + Cc1sc2c(c1C)C(c1ccc(Cl)cc1)=N[C@@H](CC(=O)OC(C)(C)C)c1nnc(C)n1-2 [NCGC00250412-19]	-186
CN1CCN2c3ccccc3Cc3ccccc3C2C1 (centres undefined) + Cc1sc2c(c1C)C(c1ccc(Cl)cc1)=N[C@@H](CC(=O)OC(C)(C)C)c1nnc(C)n1-2 [NCGC00250412-19]	-69.7
CN(c1ncccc1CNc1nc(Nc2ccc3c(c2)CC(=O)N3)ncc1C(F)(F)F)S(C)(=O)=O + Cc1sc2c(c1C)C(c1ccc(Cl)cc1)=N[C@@H](CC(=O)OC(C)(C)C)c1nnc(C)n1-2 [NCGC00250412-19]	-151
